Reference: patent US20130336951A1
No constants are given. Whether binding was seen depends on the method and setting. In cells and extracts the contact can be indirect. Some binding calls cover weakened binding; strength is not graded here. Tags and fused reporters may be left off the sequences shown.

By UniProt entry, the sequences of proteins in these tests, tags left out.
UniProt P10361: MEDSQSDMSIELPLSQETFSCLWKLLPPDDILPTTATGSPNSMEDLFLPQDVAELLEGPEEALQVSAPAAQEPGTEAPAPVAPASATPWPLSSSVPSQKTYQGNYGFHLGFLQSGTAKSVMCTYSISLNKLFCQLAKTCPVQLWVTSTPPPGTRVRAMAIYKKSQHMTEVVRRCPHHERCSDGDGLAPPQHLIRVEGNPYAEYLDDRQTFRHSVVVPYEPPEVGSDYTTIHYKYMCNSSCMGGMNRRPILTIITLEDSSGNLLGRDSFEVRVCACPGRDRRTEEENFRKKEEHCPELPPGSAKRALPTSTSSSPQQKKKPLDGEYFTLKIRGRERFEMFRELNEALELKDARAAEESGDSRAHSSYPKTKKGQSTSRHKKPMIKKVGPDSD

Assays:
[1] = target: p53, endogenous protein of rat hippocampus (rat) (UniProt P10361); experiment: GST pull-down, Western blot (FIG. 24E-H)
[2] = target: p53, endogenous protein of rat hippocampus (rat) (UniProt P10361); experiment: GST pull-down, Western blot (FIG. 24H)

binding [1]: binds
binding [2]: binds
Binder: IPELNGKLTGMAFRVPTANVSVVDLTCRLE (peptide, not shown: a dimerising Fc or GST) [GST-GAPDH(2-2-1-1) (I221-E250)]
